Entries after “also recorded” stand apart in the source; their conditions may differ.
Tested on: NEP
Test: SP degradation and SP levels in WT and Nep–/– spinal cord
Type: in vitro ADME, mouse
Conditions: IDMS, N = 4
Description: The levels of SP in WT and Nep^–/– mice spinal cord tissue (N = 4) were compared by IDMS using Top 6 MS/MS as described previously. The degradation of SP was compared in 1 mg/mL WT and Nep^–/– mice spinal cord membrane lysates using LC-MS/MS analysis following the above method.

CSCC[C@H](NC(=O)[C@H](CC(C)C)NC(=O)CNC(=O)[C@H](Cc1ccccc1)NC(=O)[C@H](Cc1ccccc1)NC(=O)[C@H](CCC(N)=O)NC(=O)[C@H](CCC(N)=O)NC(=O)[C@@H]1CCCN1C(=O)[C@H](CCCCN)NC(=O)[C@@H]1CCCN1C(=O)[C@@H](N)CCCNC(=N)N)C(N)=O [SP, Substance P]
Endogenous SP levels in spinal cords of NEP+/+ vs NEP–/– mice: same spinal cord concentrations; also recorded: no difference

Source: publication PMC3716696 (PLoS ONE, 2013)
